One experiment has as its target GFP-RPA2 S/T→D (human) (UniProt P15927). Nature of the experiment: co-IP; anti-GFP antibody and protein G-sepharose from benzonase-treated U-2 OS lysates (TNE buffer, 150 mM NaCl, 0.1% Igepal, 4 °C); naive U-2 OS cells as control; blot with anti-RPA2 antibody.
Another experiment concerns the target GFP-RPA2 WT (human) (UniProt P15927). Described as above.

Sequences of proteins named here, by UniProt entry; tags and fusion partners are left off. A change or cut given only in a name is not applied to a line headed by its entry. A line that says so, or that is headed by a name, gives the form on record, which may keep a tag or linker.
UniProt P15927: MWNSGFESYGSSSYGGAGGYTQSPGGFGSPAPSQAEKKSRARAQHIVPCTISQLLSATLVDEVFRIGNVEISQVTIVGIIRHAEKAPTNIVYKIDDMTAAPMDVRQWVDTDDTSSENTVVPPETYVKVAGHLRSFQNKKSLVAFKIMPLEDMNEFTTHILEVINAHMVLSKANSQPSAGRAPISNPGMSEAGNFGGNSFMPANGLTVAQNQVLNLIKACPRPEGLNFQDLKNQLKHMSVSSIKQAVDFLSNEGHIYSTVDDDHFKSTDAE
GFP-RPA2 S/T→D (P15927, form named): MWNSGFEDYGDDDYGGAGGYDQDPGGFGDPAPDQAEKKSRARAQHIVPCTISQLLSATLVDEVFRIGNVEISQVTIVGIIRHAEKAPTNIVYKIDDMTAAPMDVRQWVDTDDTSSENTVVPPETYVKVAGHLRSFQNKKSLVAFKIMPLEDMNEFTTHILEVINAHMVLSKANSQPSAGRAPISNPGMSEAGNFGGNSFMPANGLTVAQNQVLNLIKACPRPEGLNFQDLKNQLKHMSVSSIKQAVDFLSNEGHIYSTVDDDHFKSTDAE

These are yes or no findings as the source states them, for the method shown. In cells and extracts the contact can be indirect. Some entries that bind do so weakly or less than the wild type.

In paper PMC10113159 one finds binding data, which are given here for two substances.

Take “endogenous RPA2 (from UniProt P15927 1-270)”: in the experiment with GFP-RPA2 S/T→D (human), the binding entry is listed as “binds”.
In the case of “endogenous RPA2 (from UniProt P15927 1-270) (other; other documents disagree on this pair)”, the binding entry with GFP-RPA2 WT (human) is listed as “binds”.
